Results are given in words; binding and its absence hold for the method and conditions named. Binding calls can cover weak binding; strength is not graded here.
Experiments:
[1] = target: affinity purified epidermal growth factor receptor (EGFR) antigen (Sigma) (UniProt P00533); test: ELISA, culture medium on coated EGFR
[2] = target: affinity purified epidermal growth factor receptor (EGFR) antigen (Sigma) (UniProt P00533); test: ELISA, culture medium on coated EGFR, anti-myc and anti-mouse-HRP detection

B1: secretory anti-EGFR scFv clone 6 secreted by stably transfected U87MG.6.34.A8 cells (clone p6.34) (scFv, not shown: small tags and cut ends)
scFv: EVQLVESGGGLVQPGGSLRLSCSASGFTFSSYAMHWVRQAPGKGLEYVSAISSNGGSTYYADSVKGRFTISRDNSKNTLYLQMSSLRAEDTAVYYCVKDVGGSSWYWADYFDYWGQGTLVTVSSGSASAPKLEEGEFSEARVQSVLTQPPSLSVSPGQTASITCSGDKLGDKYASWYQQKPGQSPVLVIYQDRKRPSGIPERFSGSNSGNTATLTISGTQAMDEADYYCQAWDSSTPYVFGTGTKVTVLGQPKANPTVTLFPPSSAAA
notes: The scFv insert was moved from pSEX81 as a Bpu1102I/NotI fragment behind an Ig kappa leader; also called scFv p6.34; clone p6.34 scFv
[1]
  binding: binds
[2]
  binding: binds

— US20040071698A1 (UAB RESEARCH FOUNDATION, published 2004)
